# In PubChem BioAssay AID2685 (National Center for Advancing Translational Sciences (NCATS), 2010):
# This is one part of the list. The main result of the screen is listed elsewhere. These columns were measured beside it and carry no call. The list favours compounds with an active or inconclusive main result. Words in brackets tell the shape of the fitted curve; partial curves, single points and poor fits give uncertain potencies.
# Test: qHTS Assay for Lipid Storage Modulators in Drosophila S3 Cells;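 as to cell number change: cells counted by Cell Tracker Red CMTPX staining in the red channel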
# Conditions: BODIPY lipid droplet fluorescence, 18-24 h; for cell number change: measured here: cell count max response, cells fed with added oleic acid
# Method in brief: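 Drosophila S3 cells loaded with oleic acid (400 uM, as added) and compounds at several concentrations; lipid droplets imaged by 488-nm laser-scanning cytometry, 500–530 nm intensity and object ratio to cell channel. Percent activity normalized to 20 uM Triacsin C.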
# [1] = measured here: lipid fluorescence (Fed channel) AC50, cells fed with added oleic acid
# [2] = measured here: cell number channel AC50, cells fed with added oleic acid
Compound,cell number change,AC50 [1],AC50 [2]
CN(C)c1ccc(C(O)Cc2nc3ccccc3n2C)cc1 (configuration not stated),21.6%,,
Cc1ccc(C)c(S(=O)(=O)Nc2ccc(S(=O)(=O)Nc3onc(C)c3C)cc2)c1,-10.5%,"29.1 µM [falling, single point]",
O=S(=O)(c1ccccc1)N1CCN(CCc2ccccc2)CC1,-2.47%,,
Cc1cc(S(=O)(=O)NCCCN2CCOCC2)ccc1Br,1.9%,,
O=S(=O)(NCC1CCCO1)c1ccc(Cl)cc1 (configuration not stated),1.57%,"6.51 µM [rising, partial curve, poor fit]",
Cc1ccc(-c2nc3cccnc3o2)cc1NC(=O)COc1ccc(Cl)cc1C,23.4%,"0.651 µM [rising, full curve]",
CC(C)C(NS(=O)(=O)c1cccc2nsnc12)C(=O)NC1CCCCC1 (configuration not stated),-7.37%,,
NS(=O)(=O)c1ccc(CCNC(=O)c2ccccc2-c2ccccc2)cc1,19.6%,"1.16 µM [rising, single point]","1.84 µM [rising, partial curve]"
O=C(NCc1ccccc1)C12CC3CC(CC(C3)C1)C2,-5.7%,,
O=S(=O)(CCc1ccccc1)/N=C/c1cccs1,0.068%,,
Cc1csc(NC(=O)c2ccco2)c1C(=O)c1ccccc1,,"6.51 µM [rising, single point]",
O=C(Nc1ccccc1)N1CCCN(c2ccc(C(F)(F)F)cn2)CC1,6.19%,"0.103 µM [falling, partial curve, poor fit]",
CCOc1ccc2nc(NC(=O)c3ccc(S(=O)(=O)N4CCOCC4)cc3)sc2c1,-4.48%,,
O=C(CSc1ccc2nnc(-c3cccs3)n2n1)N1CCCC1,-39.5%,"20.6 µM [falling, single point]","20.6 µM [falling, single point]"
O=c1[nH]c(=O)n(C2C[C@H](O)[C@@H](CO)O2)cc1C(F)(F)F (some centres not stated),-26.2%,"7.31 µM [falling, partial curve]",
Cc1ccc(CNc2nc3ccccc3n2C)o1,0.529%,,
CCc1cccc(C)c1NC(=O)CO/N=C(\N)CC(=O)NC1CCCCC1,33.2%,,"29.1 µM [rising, single point]"
Cc1cccc(CCNS(=O)(=O)c2ccc(S(=O)(=O)N3CCCCC3)cc2)c1,12.4%,"29.1 µM [rising, single point]",
COCCNCC(O)CON=C1c2ccccc2-c2ccccc21 (configuration not stated),-4.44%,"5.8 µM [falling, single point]",
CCOC(=O)c1ccc(NC(=O)c2ccc(CN3CCc4ccccc4C3)cc2)cc1,,"18.4 µM [falling, single point]",

# Four structures out of the list, ordered by count of non-hydrogen atoms, largest number first.
Compound,cell number change,AC50 [1],AC50 [2]
Cc1ccc(C)c(S(=O)(=O)Nc2ccc(S(=O)(=O)Nc3onc(C)c3C)cc2)c1,-10.5%,"29.1 µM [falling, single point]",
COCCNCC(O)CON=C1c2ccccc2-c2ccccc21 (configuration not stated),-4.44%,"5.8 µM [falling, single point]",
Cc1csc(NC(=O)c2ccco2)c1C(=O)c1ccccc1,,"6.51 µM [rising, single point]",
O=S(=O)(CCc1ccccc1)/N=C/c1cccs1,0.068%,,
